# The supplement of paper PMC8728848
# Some of the results follow.
# B1: EUL D1A (Oryza sativa) (protein)
# chain: MFGFGHHHNQAPAAPSDPNQIFKIFCRANENYCLTVRDSAVVLAPVNPKDEHQHWFKDMRFSTKVKDGEGMPAFALVNKATGLAVKHSLGQSHPVKLVPFNPEYEDASVLWTESKDVGKGFRCIRMVNNTRLNLDAFHGDKDHGGVRDGTTVVLWEWCKGDNQSWKILPWGPEAHSSSPGAATACTIGGVPVHTVRVFSAAGEDYCLTVRNGTACLAPKNPRDDYQHWIKDMRHSNKIRDEEGYPAFALVNKVTGEAIKHSTGQGHPVKLVPYNPEYQDESVLWTESKDVGKGFRCIRMVNNIYLNFDAFHGDKDHGGIHDGTEIVLWKWCEGDNQRWKILPWILEQKLISEEDLNSAVDHHHHHH
# What was measured:
# Assay in all cases: glycan array binding signal (z-score within array); higher = stronger binding
# Conditions in all cases: glycan notation: IUPAC condensed, linker removed
# Neu5Ac(a2-3)GalNAc = target: Neu5Ac(a2-3)GalNAc
# Method in brief: (§1)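 Arrays were curated from the Consortium for Functional Glycomics database, 3228 in total, and kept only where the protein sequence was available. Binding is expressed as a within-array Z-score. This score was averaged across arrays of the same protein sequence at different concentrations or buffers and across linkers, and negative values can be read as non-binding.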
# [1] = target: Neu5Ac(a2-3)GalNAc(b1-4)GlcNAc
# Method in brief: as §1
# [2] = target: Neu5Ac(a2-3)[GalNAc(b1-4)]Gal(b1-4)Glc
# Method in brief: as §1
# [3] = target: Neu5Ac(a2-3)[GalNAc(b1-4)]Gal(b1-4)GlcNAc
# Method in brief: as §1
# [4] = target: Neu5Ac(a2-3)[GalNAc(b1-4)]Gal(b1-4)GlcNAc(b1-3)GalNAc
# Method in brief: as §1
# [5] = target: Neu5Ac(a2-3)[Neu5Ac(a2-6)]GalNAc
# Method in brief: as §1
# Neu5Ac(a2-6)Gal = target: Neu5Ac(a2-6)Gal
# Method in brief: as §1
# [6] = target: Neu5Ac(a2-6)Gal(b1-3)GlcNAc(b1-3)[Gal(b1-4)GlcNAc(b1-6)]Gal(b1-4)Glc
# Method in brief: as §1
# Neu5Ac(a2-6)Gal(b1-4)Glc = target: Neu5Ac(a2-6)Gal(b1-4)Glc
# Method in brief: as §1
# [7] = target: Neu5Ac(a2-6)Gal(b1-4)GlcNAc
# Method in brief: as §1
# [8] = target: Neu5Ac(a2-6)Gal(b1-4)GlcNAc(b1-2)Man
# Method in brief: as §1
# [9] = target: Neu5Ac(a2-6)Gal(b1-4)GlcNAc(b1-2)Man(a1-3)Man(b1-4)GlcNAc(b1-4)GlcNAc
# Method in brief: as §1
# [10] = target: Neu5Ac(a2-6)Gal(b1-4)GlcNAc(b1-2)Man(a1-3)[Gal(b1-4)GlcNAc(b1-2)Man(a1-6)]Man(b1-4)GlcNAc(b1-4)GlcNAc
# Method in brief: as §1
# [11] = target: Neu5Ac(a2-6)Gal(b1-4)GlcNAc(b1-2)Man(a1-3)[GlcNAc(b1-2)Man(a1-6)]Man(b1-4)GlcNAc(b1-4)GlcNAc
# Method in brief: as §1
# [12] = target: Neu5Ac(a2-6)Gal(b1-4)GlcNAc(b1-2)Man(a1-3)[GlcNAc(b1-4)][Neu5Ac(a2-6)Gal(b1-4)GlcNAc(b1-2)Man(a1-6)]Man(b1-4)GlcNAc(b1-4)GlcNAc
# Method in brief: as §1
# [13] = target: Neu5Ac(a2-6)Gal(b1-4)GlcNAc(b1-2)Man(a1-3)[Man(a1-6)]Man(b1-4)GlcNAc(b1-4)GlcNAc
# Method in brief: as §1
# [14] = target: Neu5Ac(a2-6)Gal(b1-4)GlcNAc(b1-2)Man(a1-3)[Neu5Ac(a2-3)Gal(b1-4)GlcNAc(b1-2)Man(a1-6)]Man(b1-4)GlcNAc(b1-4)GlcNAc
# Method in brief: as §1
# [15] = target: Neu5Ac(a2-6)Gal(b1-4)GlcNAc(b1-2)Man(a1-3)[Neu5Ac(a2-6)Gal(b1-4)GlcNAc(b1-2)Man(a1-6)]Man(b1-4)GlcNAc(b1-4)GlcNAc
# Method in brief: as §1
# [16] = target: Neu5Ac(a2-6)Gal(b1-4)GlcNAc(b1-2)Man(a1-3)[Neu5Ac(a2-6)Gal(b1-4)GlcNAc(b1-2)Man(a1-6)]Man(b1-4)GlcNAc(b1-4)[Fuc(a1-6)]GlcNAc
# Method in brief: as §1
# [17] = target: Neu5Ac(a2-6)Gal(b1-4)GlcNAc(b1-2)Man(a1-6)Man(b1-4)GlcNAc(b1-4)GlcNAc
# Method in brief: as §1
# [18] = target: Neu5Ac(a2-6)Gal(b1-4)GlcNAc(b1-2)Man(a1-6)[Gal(b1-4)GlcNAc(b1-2)Man(a1-3)]Man(b1-4)GlcNAc(b1-4)GlcNAc
# Method in brief: as §1
# [19] = target: Neu5Ac(a2-6)Gal(b1-4)GlcNAc(b1-2)Man(a1-6)[GlcNAc(b1-2)Man(a1-3)]Man(b1-4)GlcNAc(b1-4)GlcNAc
# Method in brief: as §1
# [20] = target: Neu5Ac(a2-6)Gal(b1-4)GlcNAc(b1-2)Man(a1-6)[Man(a1-3)]Man(b1-4)GlcNAc(b1-4)GlcNAc
# Method in brief: as §1
# [21] = target: Neu5Ac(a2-6)Gal(b1-4)GlcNAc(b1-2)[Neu5Ac(a2-6)Gal(b1-4)GlcNAc(b1-4)]Man(a1-3)[GlcNAc(b1-4)][Neu5Ac(a2-6)Gal(b1-4)GlcNAc(b1-2)[Neu5Ac(a2-6)Gal(b1-4)GlcNAc(b1-6)]Man(a1-6)]Man(b1-4)GlcNAc(b1-4)GlcNAc
# Method in brief: as §1
# [22] = target: Neu5Ac(a2-6)Gal(b1-4)GlcNAc(b1-2)[Neu5Ac(a2-6)Gal(b1-4)GlcNAc(b1-4)]Man(a1-3)[GlcNAc(b1-4)][Neu5Ac(a2-6)Gal(b1-4)GlcNAc(b1-4)Man(a1-6)]Man(b1-4)GlcNAc(b1-4)GlcNAc
# Method in brief: as §1
# [23] = target: Neu5Ac(a2-6)Gal(b1-4)GlcNAc(b1-2)[Neu5Ac(a2-6)Gal(b1-4)GlcNAc(b1-6)]Man(a1-6)[Neu5Ac(a2-6)Gal(b1-4)GlcNAc(b1-2)Man(a1-3)][GlcNAc(b1-4)]Man(b1-4)GlcNAc(b1-4)GlcNAc
# Method in brief: as §1
# [24] = target: Neu5Ac(a2-6)Gal(b1-4)GlcNAc(b1-3)Gal(b1-3)GlcNAc
# Method in brief: as §1
# [25] = target: Neu5Ac(a2-6)Gal(b1-4)GlcNAc(b1-3)Gal(b1-4)GlcNAc
# Method in brief: as §1
# [26] = target: Neu5Ac(a2-6)Gal(b1-4)GlcNAc(b1-3)Gal(b1-4)GlcNAc(b1-2)Man(a1-3)[Neu5Ac(a2-6)Gal(b1-4)GlcNAc(b1-3)Gal(b1-4)GlcNAc(b1-2)Man(a1-6)]GalNAc
# Method in brief: as §1
# [27] = target: Neu5Ac(a2-6)Gal(b1-4)GlcNAc(b1-3)Gal(b1-4)GlcNAc(b1-3)Gal(b1-4)GlcNAc
# Method in brief: as §1
# [28] = target: Neu5Ac(a2-6)Gal(b1-4)GlcNAc(b1-3)Gal(b1-4)GlcNAc(b1-3)Gal(b1-4)GlcNAc(b1-2)Man(a1-3)[Neu5Ac(a2-6)Gal(b1-4)GlcNAc(b1-3)Gal(b1-4)GlcNAc(b1-3)Gal(b1-4)GlcNAc(b1-2)Man(a1-6)]GalNAc
# Method in brief: as §1
# [29] = target: Neu5Ac(a2-6)Gal(b1-4)GlcNAc(b1-3)Gal(b1-4)GlcNAc(b1-3)GalNAc
# Method in brief: as §1
# [30] = target: Neu5Ac(a2-6)Gal(b1-4)GlcNAc(b1-3)Gal(b1-4)GlcNAc(b1-3)[Neu5Ac(a2-6)Gal(b1-4)GlcNAc(b1-3)Gal(b1-4)GlcNAc(b1-6)]GalNAc
# Method in brief: as §1
# [31] = target: Neu5Ac(a2-6)Gal(b1-4)GlcNAc(b1-3)Gal(b1-4)GlcNAc(b1-6)[Gal(b1-3)]GalNAc
# Method in brief: as §1
# [32] = target: Neu5Ac(a2-6)Gal(b1-4)GlcNAc(b1-3)Gal(b1-4)[Fuc(a1-3)]GlcNAc(b1-3)Gal(b1-4)[Fuc(a1-3)]GlcNAc
# Method in brief: as §1
# [33] = target: Neu5Ac(a2-6)Gal(b1-4)GlcNAc(b1-3)GalNAc
# Method in brief: as §1
# [34] = target: Neu5Ac(a2-6)Gal(b1-4)GlcNAc(b1-3)[Neu5Ac(a2-6)Gal(b1-4)GlcNAc(b1-6)]GalNAc
# Method in brief: as §1
binder,measurement,setting,value
B1,glycan array binding signal (z-score),Neu5Ac(a2-3)GalNAc,-1.28
same,glycan array binding signal (z-score),[1],-0.439
same,glycan array binding signal (z-score),[2],-0.137
same,glycan array binding signal (z-score),[3],-0.358
same,glycan array binding signal (z-score),[4],-0.583
same,glycan array binding signal (z-score),[5],0.339
same,glycan array binding signal (z-score),Neu5Ac(a2-6)Gal,-0.38
same,glycan array binding signal (z-score),[6],1.01
same,glycan array binding signal (z-score),Neu5Ac(a2-6)Gal(b1-4)Glc,0.537
same,glycan array binding signal (z-score),[7],-0.766
same,glycan array binding signal (z-score),[8],0.783
same,glycan array binding signal (z-score),[9],-0.862
same,glycan array binding signal (z-score),[10],0.096
same,glycan array binding signal (z-score),[11],-1.19
same,glycan array binding signal (z-score),[12],-1.57
same,glycan array binding signal (z-score),[13],-0.472
same,glycan array binding signal (z-score),[14],0.227
same,glycan array binding signal (z-score),[15],0.044
same,glycan array binding signal (z-score),[16],1.81
same,glycan array binding signal (z-score),[17],-0.159
same,glycan array binding signal (z-score),[18],-0.206
same,glycan array binding signal (z-score),[19],1.83
same,glycan array binding signal (z-score),[20],0.639
same,glycan array binding signal (z-score),[21],0.097
same,glycan array binding signal (z-score),[22],-0.399
same,glycan array binding signal (z-score),[23],0.046
same,glycan array binding signal (z-score),[24],0.833
same,glycan array binding signal (z-score),[25],-1.05
same,glycan array binding signal (z-score),[26],-0.626
same,glycan array binding signal (z-score),[27],-0.515
same,glycan array binding signal (z-score),[28],0.511
same,glycan array binding signal (z-score),[29],-0.766
same,glycan array binding signal (z-score),[30],1.73
same,glycan array binding signal (z-score),[31],0.16
same,glycan array binding signal (z-score),[32],0.203
same,glycan array binding signal (z-score),[33],-1.29
same,glycan array binding signal (z-score),[34],2.04

# Some of the entries above, reformatted:
binder	measurement	setting	value
B1	glycan array binding signal (z-score)	Neu5Ac(a2-3)GalNAc	-1.28
same	glycan array binding signal (z-score)	[18]	-0.206
